These results are taken from article PMC8287961.

By UniProt entry, the sequences of proteins in these tests, tags left out. Where a name states a change or a piece, a line headed by the entry shows the natural chain unless it says otherwise.
UniProt P83917: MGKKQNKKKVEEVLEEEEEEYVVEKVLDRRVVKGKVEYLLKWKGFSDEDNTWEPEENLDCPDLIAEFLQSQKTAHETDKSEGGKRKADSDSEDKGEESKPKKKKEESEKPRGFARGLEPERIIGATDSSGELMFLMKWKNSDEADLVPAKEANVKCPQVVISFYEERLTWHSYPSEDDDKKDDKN

These are yes or no findings as the source states them, for the method shown. For some assays here: In cells and extracts the contact can be indirect. Some results given as binding are weak or reduced against the parent protein; the word gives no strength.

In assay [1] the target is GFP-HP1β (BHK cells, F3H bait) (UniProt P83917). Nature of the assay: fluorescence three hybrid (F3H) assay; BHK cells with lac operator arrays, transiently transfected; GFP or GFP-HP1β anchored at the lacO spot, accumulation of Ch-CCN at the spot seen by confocal microscopy; fixed 16 h after transfection.
The target of assay [2] is HP1β phosphorylated at serine 89 (endogenous, mESCs) (mouse (endogenous in mESCs)), P83917. Nature of the assay: co-IP; mESC lysate (naive and metastable state; 150 mM NaCl, 0.5% NP40, Benzonase); anti-HP1β-pS89 antibody, protein G beads; washes with 300 mM NaCl; western blot. The following applies: remark: other sources report otherwise. Background: In western blotting, separated proteins are transferred to a membrane and probed.

B1: Ch-CCN (N-terminal part of the coiled-coil domain of KAP1, aa 250–324) (domain or fragment, UniProt Q62318 250-324)
chain: VRNQRKLLASLVKRLGDKHATLQKNTKEVRSSIRQVSDVQKRVQVDVKMAILQIMKELNKRGRVLVNDAQKVTEG
In the case of B1, the binding result in assay [1] was “binds”.

B2: KAP1 (endogenous, mESCs), Q62318 1-834 (protein)
chain: MAASAAATAAASAATAASAASGSPGSGEGSAGGEKRPAASSAAAASAAASSPAGGGGEAQELLEHCGVCRERLRPERDPRLLPCLHSACSACLGPATPAAANNSGDGGSAGDGAMVDCPVCKQQCYSKDIVENYFMRDSGSKASSDSQDANQCCTSCEDNAPATSYCVECSEPLCETCVEAHQRVKYTKDHTVRSTGPAKTRDGERTVYCNVHKHEPLVLFCESCDTLTCRDCQLNAHKDHQYQFLEDAVRNQRKLLASLVKRLGDKHATLQKNTKEVRSSIRQVSDVQKRVQVDVKMAILQIMKELNKRGRVLVNDAQKVTEGQQERLERQHWTMTKIQKHQEHILRFASWALESDNNTALLLSKKLIYFQLHRALKMIVDPVEPHGEMKFQWDLNAWTKSAEAFGKIVAERPGTNSTGPGPMAPPRAPGPLSKQGSGSSQPMEVQEGYGFGSDDPYSSAEPHVSGMKRSRSGEGEVSGLLRKVPRVSLERLDLDLTSDSQPPVFKVFPGSTTEDYNLIVIERGAAAAAAGQAGTVPPGAPGAPPLPGMAIVKEEETEAAIGAPPAAPEGPETKPVLMPLTEGPGAEGPRLASPSGSTSSGLEVVAPEVTSAPVSGPGILDDSATICRVCQKPGDLVMCNQCEFCFHLDCHLPALQDVPGEEWSCSLCHVLPDLKEEDGSLSLDGADSTGVVAKLSPANQRKCERVLLALFCHEPCRPLHQLATDSTFSMEQPGGTLDLTLIRARLQEKLSPPYSSPQEFAQDVGRMFKQFNKLTEDKADVQSIIGLQRFFETRMNDAFGDTKFSAVLVEPPPLNLPSAGLSSQELSGPGDGP
modifications: here or on the partner: phosphoserine at 89
As to B2, in assay [2], the binding result was “binds”.
